Measured values published in PubChem BioAssay AID493014 (National Center for Advancing Translational Sciences (NCATS), 2011).
This is one part of the list. Shown are side measurements of this screen, not its main read-out; they come without a call. The list favours compounds with an active or inconclusive main result. The note in brackets gives the kind of curve behind each potency; many fits are weak.

Assay: qHTS Assay to Find Inhibitors of Chronic Active B-Cell Receptor Signaling
Details: ABC-DLBCL IkBa-CBG/CBR reporter, luminescence ratio (green luciferase fused to IkBa over red control in TMD8 lymphoma cells), 4 h
Method in brief: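 Cell line TMD8 (human ABC DLBCL), stably expressing tet-inducible CBG68-IkBa fusion and CBR; IMDM/0.5% FBS; cpd up to 46 uM; dox induction, 4 h, 37C/5% CO2; dual luminescence; green/red ratio; MG132 control.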

[1] = measured here: CBR red luminescence, cell number
[2] = measured here: IkBa-CBG green luminescence

Structure (SMILES) | AC50 [1] | AC50 [2]
C(=N\Nc1nc(-c2ccccn2)nc2ccccc12)/c1ccccc1 | 3.16 µM [rising, single point] | 2.82 µM [falling, partial curve, poor fit]
CCOC(=O)c1ccc(NC(=O)Nc2cc(C)on2)cc1 | 0.651 µM [rising, full curve, poor fit] | 
Clc1ccc(C2=NNC(=NCc3ccccc3)SC2)cc1 | 5.62 µM [falling, full curve] | 
CCCC(O)(c1ccc(OC)cc1)C(CN1CCOCC1)c1ccccc1 (stereo unspecified) | 22.4 µM [falling, partial curve, poor fit] | 
Cc1cc(CN(C)C(=O)CC2C(=O)NCCN2Cc2ccc(-c3ccccc3)cc2)on1 (stereo unspecified) | 5.62 µM [falling, partial curve] | 
O=C1CC(N(O)c2ccccc2)C(=O)N1c1cc(Cl)cc(Cl)c1 (stereo unspecified) | 10 µM [falling, partial curve, poor fit] | 
Oc1ccc(C2=NN(c3ccccc3)C(c3ccc(F)cc3)C2)cc1 (stereo unspecified) | 11.2 µM [rising, partial curve] | 
CC(=O)Nc1cccc(-c2csc(Nc3ccccn3)n2)c1 | 17.8 µM [falling, partial curve, poor fit] | 
Cc1ccccc1NS(=O)(=O)c1ccc(-c2ccc(=O)[nH]n2)o1 | 35.5 µM [falling, partial curve, poor fit] | 
COc1cc(C(C)=O)ccc1COc1ccc(C(=O)OCC(=O)NC(C)(C)C)cc1OC | 20.6 µM [rising, single point] | 
CC(=O)c1cc(C#N)c(SCc2ccccc2C#N)nc1C | 8.2 µM [rising, partial curve, poor fit] | 
Cc1cc(C(=O)NNS(=O)(=O)c2cc(C(=O)O)ccc2Cl)c(C)n1-c1ccccc1 | 4.61 µM [rising, single point] | 
O=C(NNC(=S)NC(=O)c1ccccc1[N+](=O)[O-])c1ccccc1O | 2.24 µM [falling, partial curve, poor fit] | 
CCN=C1SC(C(=O)Nc2ccccc2)CC(=O)N1CC (stereo unspecified) | 18.4 µM [rising, single point] | 
O=C(Nc1ccccc1)OCCCc1ccccc1 | 12.6 µM [falling, partial curve, poor fit] | 
O=C(CC(c1ccccc1)c1ccccc1)OCn1nnc2ccccc2c1=O | 18.4 µM [rising, partial curve, poor fit] | 
COc1ccc(C(=O)NCC(=O)N/N=C(\C)Cc2ccccc2)cc1 | 6.31 µM [falling, single point] | 
O=C(NC(=S)Nc1ccccc1N1CCCCC1)c1ccco1 | 14.6 µM [rising, partial curve, poor fit] | 
O=C(Nc1ccc(Cl)cc1)N1CCCC1 | 1.64 µM [rising, full curve] | 
CCN(CCCNC(=O)CNC(=O)c1nn(-c2ccc(OC)c(OC)c2)c(=O)c2ccccc12)c1ccccc1 |  | 22.4 µM [rising, partial curve, poor fit]

Compounds from the list above that contain a furan ring, fused or not:
Structure (SMILES) | AC50 [1] | AC50 [2]
Cc1ccccc1NS(=O)(=O)c1ccc(-c2ccc(=O)[nH]n2)o1 | 35.5 µM [falling, partial curve, poor fit] | 
O=C(NC(=S)Nc1ccccc1N1CCCCC1)c1ccco1 | 14.6 µM [rising, partial curve, poor fit] | 

Continuation.

Structure (SMILES) | AC50 [1] | AC50 [2]
O=C(Nc1nc2cc3c(cc2s1)OCCO3)c1cccc(S(=O)(=O)N2CCOCC2)c1 | 22.4 µM [falling, single point] | 
CCOC(=O)/C(C#N)=C\C1=C(N2CCOCC2)CC(C)(C)OC1 | 22.4 µM [falling, single point] | 
O=C(Nc1ccc2ccccc2n1)c1ccccc1Cl | 2.82 µM [falling, full curve, poor fit] | 
Cc1cc(C)c2cc(CN(CCO)C(c3nnnn3Cc3ccc(F)cc3)C(C)C)c(=O)[nH]c2c1 (stereo unspecified) | 0.82 µM [rising, partial curve, poor fit] | 
O=[N+]([O-])c1ccccc1-c1nc(-c2ccc(Br)o2)no1 | 1.84 µM [rising, full curve] | 
O=C1/C(=C/N(C(=O)c2ccco2)c2ccc(Br)cc2)Sc2ccccc21 | 25.9 µM [falling, partial curve, poor fit] | 
COc1ccc(/C=N/n2cnnc2SCCO)cc1OC | 15.8 µM [rising, partial curve, poor fit] | 
O=Nc1c(O)n(Cc2ccc(Cl)cc2Cl)c2ccccc12 | 12.6 µM [rising, partial curve, poor fit] | 
NC(=O)CC1C(=O)N(c2ccccc2)C(=S)N1NC(=O)c1ccc(Br)cc1 (stereo unspecified) | 11.2 µM [falling, partial curve] | 
COc1cc(-c2noc(C)c2/C=C/c2ccc(OC(C)=O)cc2)cc(OC)c1OC |  | 5.62 µM [falling, partial curve]
CCS(=O)(=O)N1Cc2ccccc2CC1C(=O)N1CCN(c2ccccc2)CC1 (stereo unspecified) | 5.62 µM [rising, single point] | 
CC(C)(C)C(=O)[C@@H]1[C@@H]2C(=O)N(Cc3ccccc3)C(=O)[C@@H]2[C@H]2c3ccccc3C=CN12 | 16.4 µM [falling, single point] | 
Cc1cccc(C(=O)NC(=S)NNC(=O)c2cccs2)c1 | 23.1 µM [falling, single point] | 
COc1cc(C2=NOC(C(=O)NCc3ccco3)C2)cc(OC)c1OC (stereo unspecified) | 35.5 µM [rising, single point] | 25.1 µM [falling, partial curve, poor fit]
O=C(COC(=O)c1cnccn1)Nc1ccc(Cl)cc1C(F)(F)F | 0.326 µM [rising, full curve, poor fit] | 
O=C(CN(c1ccc2c(c1)OCCO2)S(=O)(=O)c1ccccc1)NCc1ccc(Cl)cc1 | 18.4 µM [falling, partial curve, poor fit] | 
CC1CCN(c2c(NCC3CCC(C(=O)NCCC4=CCCCC4)CC3)c(=O)c2=O)CC1 (stereo unspecified) | 5.62 µM [rising, single point] | 
C=CCn1c(N)c(C(=O)NCC2CCCO2)c2nc3ccccc3nc21 (stereo unspecified) | 3.16 µM [falling, full curve, poor fit] | 
Cc1cccnc1NC(=O)CSc1ccc2c(c1)OCCO2 | 1.46 µM [falling, partial curve, poor fit] | 
